# Assay results as given in PubChem BioAssay AID504444 (National Center for Advancing Translational Sciences (NCATS), 2011).
# Hit rate of the full screen: of about 360,000 compounds, about 7,500 (2.1%) were called active. Inconclusive means that the source gave no clear call. Such entries were picked first, then a sample of the others. The call rests on the fitted dose curve; in most records, active means well fitted inhibition curve with a large enough effect; inconclusive means small, poorly fitted or top-dose-only effect, or effect the other way; inactive means flat fitted curve, though single readings scatter. Where the call is inconclusive, the potency comes from a doubtful curve fit.
# Assay: Nrf2 qHTS screen for inhibitors; further: nearly all actives have a fitted effect of over 60% in size
# Conditions: A549 ARE-Fluc reporter, luciferase luminescence, 18-24 h; activity change, negative = inhibition: at 46 µM (top of the series)
# In short: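 Reporter: ARE-Fluc in A549. Exposure: 18-24 h, 37 °C, 5% CO2, 5% FBS OPTI-MEM. Readouts: fluorescent cytotoxicity (CellTiter-Fluor), then luminescent Nrf2 signal after BugLite.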
# On the % scale 0 is the no-effect control and ±100 the full control effect; potency means the concentration at half of the fitted maximal effect.
Structure (SMILES),"activity change, negative = inhibition",Potency
Nc1ccc(S(=O)(=O)N2CCN(S(=O)(=O)c3c(F)cccc3F)CC2)cc1,inactive: -1.1%,–
CN1c2ccccc2C(C)(C)C12C=Cc1cc(O)ccc1O2 (stereo not given),–,active: 20.6 µM
COc1ccc(-c2cn3c(C)c(C(=O)N4CCc5ccccc5C4)sc3n2)cc1,–,active: 16.4 µM
COc1ccc(N2Cc3cccc(C(=O)Nc4ccc(Cl)cc4)c3C2=O)cc1,–,"inconclusive: 4.61 µM [falling, partial curve, poor fit]"
CCc1ccc(CNC(=O)C2CCN(c3nnc(C)c4c(C)n(-c5ccc(C)cc5)nc34)CC2)cc1,–,"inconclusive: 29.1 µM [falling, single point]"
Oc1ccc(/C=N/n2c(COc3ccccc3)n[nH]c2=S)c(O)c1,inactive: -0.97%,–
CCc1cccc(Nc2c([N+](=O)[O-])cc(C(=O)N3CC(=O)Nc4ccccc43)cc2[N+](=O)[O-])c1,–,"inconclusive: 11.6 µM [falling, partial curve]"
Cc1cc(=O)oc2cc(OCC(=O)Nc3cccnc3)ccc12,–,"inconclusive: 29.1 µM [falling, single point]"
Cc1cc(=O)oc2cc(OCc3nnc(-c4ccccc4Br)o3)ccc12,inactive: -17.9%,–
CSc1ccccc1OCc1cc(C(=O)N(C)C2CCCc3ccccc32)no1 (stereo not given),–,"inconclusive: 5.8 µM [activator, full curve, poor fit]"
CC(=O)c1c(C)[nH]c(C(=O)OC(C)C(=O)Nc2cc(S(=O)(=O)N3CCCCC3)ccc2Cl)c1C (stereo not given),–,"inconclusive: 4.11 µM [falling, partial curve, poor fit]"
Cc1nnsc1S(=O)c1ccc(Br)cc1 (stereo not given),–,"inconclusive: 32.6 µM [falling, single point]"
Cc1ccc(C(C(=O)NC(C)(C)C)N(C(=O)CCC(=O)Nc2ccccn2)c2ccccc2F)cc1 (stereo not given),inactive: -19.9%,–
CCN(CC)S(=O)(=O)c1cc(-c2nnc(-c3ccc(Br)cc3)o2)ccc1Cl,–,active: 20.6 µM
Cc1cccc(N2CCN(C(=O)C3CCC(CNS(=O)(=O)c4cccs4)CC3)CC2)c1C (stereo not given),–,active: 6.51 µM
Cc1ccc(-c2csc3ncnc(SCC(=O)Nc4nnc(C)s4)c23)cc1,–,"inconclusive: 29.1 µM [falling, single point]"
NC(N)=N/N=C/c1ccc(OCc2ccc(Cl)cc2)cc1,–,"inconclusive: 20.6 µM [activator, single point]"
Cc1cc(/C=C2\Cc3ccccc3C2=O)c(C)n1-c1ccccc1,–,"inconclusive: 16.4 µM [activator, single point]"
CC(C)c1cc(C(=O)N2CCCC(CCC(=O)N3CCN(c4ccccn4)CC3)C2)no1 (stereo not given),–,"inconclusive: 16.4 µM [falling, single point]"
Cc1ccc(-c2nnc(-c3ccc4ccccc4c3)o2)cc1,–,"inconclusive: 16.4 µM [activator, partial curve]"
CC(=O)c1cccc(-n2c(=O)c3c4c(sc3n(CC(=O)Nc3ccccc3F)c2=O)CN(C(C)=O)CC4)c1,–,"inconclusive: 29.1 µM [activator, single point]"
COc1ccc(N=c2nc(-c3ccccc3)n(-c3ccc(C)cc3)s2)cc1,–,"inconclusive: 29.1 µM [falling, single point]"

# Exported with bars between the fields: entries from further up.
Structure (SMILES) | activity change, negative = inhibition | Potency
Oc1ccc(/C=N/n2c(COc3ccccc3)n[nH]c2=S)c(O)c1 | inactive: -0.97% | –
CCc1cccc(Nc2c([N+](=O)[O-])cc(C(=O)N3CC(=O)Nc4ccccc43)cc2[N+](=O)[O-])c1 | – | inconclusive: 11.6 µM [falling, partial curve]

# Going on with the list:

Structure (SMILES),"activity change, negative = inhibition",Potency
Oc1[nH]c2ccc(Br)cc2c1N=Nc1ccc(C(F)(F)F)cn1,–,"inconclusive: 0.731 µM [activator, full curve]"
CN(C)c1ccc(N/C=C/C(=O)c2ccc(F)cc2)cc1,–,"inconclusive: 4.11 µM [activator, single point]"
CCC(Sc1nc2ccccc2c(=O)[nH]1)C(=O)Nc1ccc(C(C)=O)cc1 (stereo not given),inactive: -17.8%,–
O=C1CSc2ccc(S(=O)(=O)NCc3ccc(F)cc3)cc2N1,–,"inconclusive: 32.6 µM [falling, single point]"
Cc1nc(N2CCN(c3ccccc3)CC2)nc2c1C(=O)CC(C)C2 (stereo not given),–,"inconclusive: 18.4 µM [falling, single point]"
O=C(Nc1c(C(=O)O)[nH]c2ccc(F)cc12)c1cccc(C(F)(F)F)c1,inactive: -9.37%,–
Cc1ccc(C(=O)Nc2ccc(S(=O)(=O)N3CCc4ccccc43)cc2)o1,–,active: 20.6 µM
Cc1ccc(/C=N/NC(=O)c2ccc(N(C)S(=O)(=O)c3ccccc3)cc2)cc1,–,"inconclusive: 29.1 µM [falling, single point]"
CCOC(=O)Cn1c(=O)c2c(nc(N3CCOCC3)n2Cc2ccccc2)n(C)c1=O,inactive: 9.26%,–
O=C(Cn1cnc2c(oc3nc4c(cc32)CCCC4)c1=O)Nc1ccccc1,inactive: -0.38%,–
CC(C)(CC(=O)OCC(=O)Nc1ccccc1F)CC1=NS(=O)(=O)c2ccccc2N1,–,"inconclusive: 7.31 µM [falling, partial curve, poor fit]"
O=C(N/N=C/c1ccc(-c2cccc([N+](=O)[O-])c2)o1)[C@H]1C[C@@H]1c1ccccc1,–,"inconclusive: 14.6 µM [falling, single point]"
Cc1cc(C)nc(SCC(=O)c2ccc(F)cc2F)n1,inactive: 19.8%,–
COc1ccc(Sc2ccc(-c3nc4cnccn4c3NC3CCCCC3)cc2OC)cc1,–,"inconclusive: 29.1 µM [falling, single point]"
CCOc1ccc(NC(=S)NNc2ccnc3cc(Cl)ccc23)cc1,–,"inconclusive: 29.1 µM [falling, single point]"
COc1cc2ccccc2cc1C(=O)NC(=S)Nc1cc(C(=O)O)ccc1C,–,"inconclusive: 3.66 µM [falling, partial curve, poor fit]"
N#CCCN(C(=O)CSc1nc2nc(-c3cccs3)cc(C(F)(F)F)c2c(=O)[nH]1)c1ccccc1,–,active: 20.6 µM
O=C(O)C1CCN(c2nc(-c3ccccc3)nc3c2oc2ccccc23)CC1,–,"inconclusive: 10.3 µM [falling, partial curve, poor fit]"
Cc1csc2nc(O)c(C(=O)NC3CCCCCC3)c(=O)n12,–,"inconclusive: 20.6 µM [falling, partial curve]"
CCOc1cc(C(=O)OCC(=O)c2c(N)n(C)c(=O)n(C)c2=O)cc(OCC)c1OCC,inactive: -22%,–
CCCCCCc1cc2cc(C(=O)Nc3ccc(OC)cc3)c(=O)oc2cc1O,inactive: 2.1%,–
CCC1=Nc2cc(C(=O)NCC3CCCO3)ccc2Sc2ccc(Cl)cc21 (stereo not given),–,"inconclusive: 3.66 µM [falling, partial curve]"

# 3 records drawn at random from those above:
Structure (SMILES),"activity change, negative = inhibition",Potency
O=C(Cn1cnc2c(oc3nc4c(cc32)CCCC4)c1=O)Nc1ccccc1,inactive: -0.38%,–
CCCCCCc1cc2cc(C(=O)Nc3ccc(OC)cc3)c(=O)oc2cc1O,inactive: 2.1%,–
O=C(O)C1CCN(c2nc(-c3ccccc3)nc3c2oc2ccccc23)CC1,–,"inconclusive: 10.3 µM [falling, partial curve, poor fit]"

# Next entries follow.

Structure (SMILES),"activity change, negative = inhibition",Potency
O=C(Nc1ccccc1O)c1ccc(Cl)cc1,–,"inconclusive: 23.1 µM [activator, single point]"
CCCCN(CCCNC(=O)C1CCN(C(=O)c2cc3sccc3n2C)CC1)Cc1ccccc1,–,"inconclusive: 18.4 µM [activator, single point]"
COc1ccc(CNC(=O)CSc2nc(-c3ccccc3)cc(-c3cccs3)c2C#N)cc1,–,"inconclusive: 10.3 µM [falling, partial curve, poor fit]"
CCOC(=O)/C=C1\CN(Cc2cc(OC)c(OC)c(OC)c2)S(=O)(=O)c2ccc(C(F)(F)F)cc21,–,active: 20.6 µM
CCCCNc1nc(Oc2ccc(=O)n(-c3ccccc3)n2)nc(N(CC)CC)n1,–,"inconclusive: 29.1 µM [falling, single point]"
CCn1cc(C(=O)NCc2ccc(Cl)cc2)c(=O)c2cc(S(=O)(=O)N3CCOCC3)ccc21,–,"inconclusive: 9.2 µM [falling, partial curve, poor fit]"
CC1CC2(CCCCC2)Nc2ccc3ccccc3c21 (stereo not given),inactive: -11.3%,–
COc1ccc(/C=C(\NC(=O)c2ccc(C)cc2)C(=O)Nc2ccc(C(=O)O)cc2)cc1,–,"inconclusive: 20.6 µM [activator, single point]"
COc1cccc(C(=O)NC(=S)Nc2ccc([N+](=O)[O-])cc2C)c1,–,"inconclusive: 29.1 µM [falling, partial curve, poor fit]"
O=C(c1ccccc1)N1N=C(c2ccccc2)CC1c1ccccc1O (stereo not given),–,"inconclusive: 18.4 µM [falling, single point]"
Cc1ccc(C2=NCCn3c2c2ccc([N+](=O)[O-])cc2[n+]3[O-])cc1,–,"inconclusive: 29.1 µM [activator, single point]"
CCC(C(=O)OC)n1cnc2c(cnn2-c2ccc(Cl)cc2)c1=O (stereo not given),–,"inconclusive: 16.4 µM [falling, single point]"
O=C(Cn1nc(-c2ccccc2)c2cnc3ccc(F)cc3c21)NC1CCCC1,inactive: 6.75%,–
O=C(Nc1nnc(S(=O)(=O)N2CCCCCC2)s1)c1ccccc1F,–,"inconclusive: 1.64 µM [activator, full curve]"
CCOC(=O)C1CCN(S(=O)(=O)c2ccc(NC(=O)OC)cc2)CC1,–,"inconclusive: 10.3 µM [falling, partial curve, poor fit]"
Cn1c(-c2ccccc2)cc2c3no[n+]([O-])c3ccc21,–,"inconclusive: 2.59 µM [falling, full curve, poor fit]"
Cc1nc(N2CCOCC2)c2c(C(=O)N(C)Cc3ccccc3)c(C)oc2n1,inactive: 17.2%,–
COc1ccc(CN([C@H](C)CO)S(=O)(=O)N(Cc2ccccc2)[C@H](CO)C(C)C)cc1,–,"inconclusive: 18.4 µM [activator, single point]"
Cc1oc2ccc(NS(=O)(=O)c3cccc4cccnc34)cc2c1C(=O)OC(C)C,–,"inconclusive: 29.1 µM [falling, single point]"
Cc1cccc(Cn2c(SCc3ccc(C(=O)NCc4ccccc4)cc3)nc3cccnc32)c1,–,"inconclusive: 9.2 µM [falling, partial curve]"
CC1(C)CC(=O)C2=C(C1)NC1=C(C(=O)c3ccccc31)C2c1cc([N+](=O)[O-])ccc1O (stereo not given),–,"inconclusive: 20.6 µM [activator, partial curve]"
